Experimental data as given in PubChem BioAssay AID652054 (National Center for Advancing Translational Sciences (NCATS), 2013).
In all, about 360,000 compounds went through this assay and about 9,100 (2.5%) were called active. Inconclusive means that the source gave no clear call. Such entries were picked first, then a sample of the others. Rule as the data show it: active = max response below about -50%; inconclusive = no clear call, values can overlap the other calls; inactive = above that.

Amino acid sequences for entries named in this document (tags omitted).
UniProt P35462, whole entry, looked up: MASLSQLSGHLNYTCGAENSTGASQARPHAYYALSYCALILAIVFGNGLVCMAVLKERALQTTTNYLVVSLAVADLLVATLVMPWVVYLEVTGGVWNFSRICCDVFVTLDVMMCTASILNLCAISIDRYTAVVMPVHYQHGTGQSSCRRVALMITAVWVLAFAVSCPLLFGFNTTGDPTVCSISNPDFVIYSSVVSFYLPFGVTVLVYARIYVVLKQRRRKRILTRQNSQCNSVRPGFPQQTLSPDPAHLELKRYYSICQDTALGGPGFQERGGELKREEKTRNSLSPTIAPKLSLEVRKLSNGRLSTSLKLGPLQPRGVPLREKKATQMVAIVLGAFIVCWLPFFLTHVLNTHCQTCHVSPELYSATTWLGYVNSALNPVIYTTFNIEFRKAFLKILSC

Biological target: D(3) dopamine receptor (Homo sapiens) (UniProt P35462)
Experiment: qHTS of D3 Dopamine Receptor Antagonist: qHTS
Conditions: D3R cells, DiscoveRx beta-arrestin luminescence, antagonist mode; active compounds read low
Outline: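 Cells expressing the human receptor were seeded at 1500 cells/well, incubated overnight at 37 degrees C in 5% CO2, then exposed to library compounds with dopamine controls for 90 minutes at 37 degrees C before luminescent detection.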
% is scaled to controls: 0 for no effect and ±100 for the full control effect.

Max response, negative = inhibition, inactive:
CC(C)N1CC(C(=O)Nc2ccc(Cl)c([N+](=O)[O-])c2)CC1=O (centres undefined) 4.06%
COC(=O)c1ccccc1NC(=O)CN1CCC(n2nnc3cc(C(F)(F)F)ccc32)CC1 -1.55%
CCOC1=C2CN(S(=O)(=O)c3ccc(C)cc3)C(c3ccccc3)CC2N(S(=O)(=O)c2ccc(C)cc2)C(c2ccc(Br)cc2)C1 (centres undefined) -1.97%
O=C(O)c1c2c(nc3ccccc13)CCCCC2 -13.9%
C=CCN1C(=O)CSc2ccc(C(=O)NC3CCCCC3)cc21 -16.5%
CCCNc1nc(-c2ccccc2)c(C(=O)OCC)cc1C#N -16.4%
COc1ccc(C=CC(=O)c2ccc([N+](=O)[O-])cc2)cc1 -8.21%
COC(=O)[C@@]1(C(C)C)N=C(c2cc(OC)c(OC)c(OC)c2)[C@]2(O1)C(=O)Nc1ccc(F)cc12 16.6%
CN(C(=O)c1cccc(Nc2ccc(-c3ccc4c(c3)OCCO4)nn2)c1)C1CCCCC1 5.42%
COc1cc(C(=O)N/C(=C\c2cn(S(=O)(=O)N(C)C)c3ccccc23)C(=O)N2CCCC2)cc(OC)c1OC 2.4%
CC(C)(C)c1nnc(NS(=O)(=O)c2cc(Cl)ccc2Cl)s1 -10.6%
Cc1cc(C(=O)CC#N)c(C)n1-c1ccc(OC(F)F)cc1 6.63%
Cc1cc(C)nc(-n2nc(C)cc2NC(=O)CNC(C)c2ccccc2)n1 (centres undefined) -1.24%
Cc1nccc(-c2cc(-c3ccc(Cl)cc3Cl)no2)n1 15.3%
COc1ccc(CN(C(C)=O)c2cc(C)c([N+](=O)[O-])cc2OC)cc1OC -8.19%

3 entries picked at random from those above:
Max response, negative = inhibition, inactive:
CCCNc1nc(-c2ccccc2)c(C(=O)OCC)cc1C#N -16.4%
CC(C)N1CC(C(=O)Nc2ccc(Cl)c([N+](=O)[O-])c2)CC1=O (centres undefined) 4.06%
C=CCN1C(=O)CSc2ccc(C(=O)NC3CCCCC3)cc21 -16.5%

Following part.

Max response, negative = inhibition, inconclusive:
CC1Cc2ccccc2N1C(=O)COC(=O)c1ccc([N+](=O)[O-])o1 (centres undefined) -32.3%
Cc1nn(C)c(C)c1C1C(C#N)=C(N)Oc2n[nH]c(C)c21 (centres undefined) -39.5%
CCc1ccc(NC(=O)CSc2n[nH]c(C)c2[N+](=O)[O-])cc1 -35%
CC1(C(=O)Nc2cccc(OC(F)(F)F)c2)Cc2c(-c3ccc4c(c3)OCO4)ccnc2O1 (centres undefined) -33.7%
CN(C)C(CNC(=O)c1cccc(S(=O)(=O)Nc2ccc(SC(F)F)cc2)c1)c1ccccc1 (centres undefined) -38.1%
CSc1cccc(NS(=O)(=O)c2cc(Br)cnc2N)c1 -30.2%
CCCCN(CC)CCCNC(=O)c1cn(CC(C)C)c(=O)c2c1c1ccccc1n2C -33.6%
C=CCN1C(=O)/C(=C\C(C)=C\c2ccccc2)SC1=S -40.5%
COc1ccc(C(CC(=O)NC(C)c2ccc(-c3ccccc3)cc2)NC(C)=O)cc1 (centres undefined) -38.5%
COc1ccc(C(=S)N2CCNCC2)cc1 -38.5%
CCc1ccc(C(=O)CN2C(=O)NC3(CCOc4ccccc43)C2=O)s1 (centres undefined) -33.8%
O[C@@H]1CN(Cc2cccs2)[C@@H](c2ccccc2)C[C@H]1n1cc(-c2ccc(F)cc2)nn1 -47.4%
CCCCN(CCNP(=O)(OCC)OCC)CP(=O)(OCC)OCC -44.4%
CCC(C)(C)n1nnnc1C(c1ccc(O)c(OC)c1)N1CCc2ccccc2C1 (centres undefined) -30.5%
Cc1nc2c(OCc3ccc(F)cc3)cccn2c1N(C)C(=O)CCC1CCCC1 -32.6%
CS(=O)(=O)Nc1ccccc1C(=O)Nc1ccc2c(c1)OCCO2 -35.9%
C(=N\c1c(-c2ccccc2)nc2n1CCS2)/c1ccccc1 -43.8%
Cc1sc2ncnc(Sc3nnnn3-c3ccc(Cl)cc3)c2c1C -30.5%
CCOc1ccccc1CN1CCN(CC2=Cc3cc(OC)ccc3OC2)CC1CCO (centres undefined) -32.3%
COc1ccc(-n2c(-c3ccc(Br)cc3)n[nH]c2=S)cc1 -30.4%
COc1cc(/C=C2\SC(=S)N(Nc3ncc(C(F)(F)F)cc3Cl)C2=O)ccc1O -30.4%
CN(C)CCOC(=O)C12CC3CC(CC(C3)C1)C2 -34.5%
Cc1onc(-c2c(Cl)cccc2Cl)c1C(=O)Nc1nc(C(C)(C)C)cs1 -47.1%
O=C(NCCCN1CCCC1)c1ccc2c(c1)N(Cc1ccccc1)CCS2 -42.7%
NC(c1ccccc1)c1csc(NC(=O)NCCc2ccccc2)n1 (centres undefined) -40.5%
CSc1cccc(NC(=O)Nc2ccccc2C(N)=O)c1 -46.8%
COc1ccc(NC(=O)C2C3C=CC4(O3)C2C(=O)N(CCN2CCCCC2C)C4C(=O)NC2CCCCC2)cc1 (centres undefined) -39.2%
O=C1[C@H]2[C@@H](c3ccc(Cl)cc3)N3C(=O)N(c4cccc(Br)c4)C(=O)[C@@]3(Cc3ccc(Cl)cc3)[C@H]2C(=O)N1C1CCCCC1 -30.3%
CC1(C)CCCN(C(=O)N2c3ccccc3Sc3ccccc32)C1 -33.6%
CCCn1c(CCC(=O)Nc2ccccc2Cc2ccccc2)nc2cc(S(=O)(=O)N3CCOCC3)ccc21 -40.8%
NS(=O)(=O)c1ccc(N=Nc2ccc(O)c3ncccc23)cc1 -47.5%
Cc1ccc(C)c(CN2CCC(CNC(=O)Nc3ccc(C)c(F)c3)CC2)c1 -34.4%

Max response, negative = inhibition, active:
COc1ccc(C(CNC(=O)c2cccc(S(=O)(=O)NCc3ccccc3)c2)N(C)C)cc1 (centres undefined) -71.3%
COc1cccc(NC(=O)COC(=O)c2c(F)cccc2Cl)c1 -61.5%
CCCc1cc(=O)[nH]c(Nc2cc(OC)ccc2OC)n1 -52%
CCN(CC)CCCSc1nc2ccccc2s1 -73.9%
C=CCNCC#CCOc1ccc(OC)cc1 -62%
Cc1cccnc1C(NC(=O)C1CCN(CCCOc2ccc(F)cc2)CC1)c1ccccc1 (centres undefined) -83.9%
Cc1nc(C(=O)NCc2ccccc2)sc1C1(C)CC(c2ccccc2)=NO1 (centres undefined) -50.4%
